Test results as given in the supplement of paper PMC12067093, “Discovery and optimisation of a covalent ligand for TRIM25 and its application to targeted protein ubiquitination” (Chemical Science, 2025).
The list shows a part of the results.

Compound: CC1Cc2ccccc2N1C(=O)C1CCCN(C1)C(=O)CCl (mixture of isomers) [TRIM25 ligand 11 (diastereomer mixture)]
Experiment: probe-labelled cysteine peptide fold change vs DMSO (competition) (log2 fold change); higher = less target engagement (more negative = stronger competition)
Settings: THP-1, incubation time: 4 h
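Further: competitive chemoproteomic profiling in live THP-1 cells with an iodoacetamide desthiobiotin (IA-DTB) probe, comparing probe-labelled peptide intensities in compound-treated cells against DMSO-treated controls.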

Target | probe-labelled cysteine peptide fold change (10 µM) | probe-labelled cysteine peptide fold change (50 µM)
GMPS_P49915_489_ACTTEEDQEK (UniProt P49915) | -0.00635 | 0.106
GMPR2_Q9P2T1_348_VTQQVNPIFSEAC (UniProt Q9P2T1) | -0.391 | -0.155
GLG1_Q92896_1092_QMSCLMEALEDK (UniProt Q92896) | -0.00141 | 0.102
GLG1_Q92896_155_HTWSNNLAVLECLQDVREPENEISSDCNHLLWNYK (UniProt Q92896) | -0.0518 | 0.0279
GOLGB1_Q14789_3144_SDPEELREPQQSFSEAQQQLCNTR (UniProt Q14789) | 0.00424 | -0.0107
GPC4_O75487_341_VFQGCGPPKPLPAGR (UniProt O75487) | -0.0123 | -0.141
GLG1_Q92896_767_LCPNIK (UniProt Q92896) | 0.0706 | 0.244
GPATCH1_Q9BRR8_534_CLDPSMTEWER (UniProt Q9BRR8) | -0.0382 | 0.186
GNS_P15586_140_SMCGYQTFFAGK (UniProt P15586) | -0.111 | -0.0983
GNB1_P62873_149_ELAGHTGYLSCCR (UniProt P62873) | 0.0453 | 0.0662
GNPDA2_Q8TDQ7_239_TIFVCDEDATLELR (UniProt Q8TDQ7) | 0.25 | 0.0344
GNB1_P62873_148+149_ELAGHTGYLSCCR (UniProt P62873) | -0.132 | -0.182
GNAI2_P04899_140_RLWADHGVQACFGR (UniProt P04899) | -0.209 | 0.0431
GNA13_Q14344_318_DYFLEFEGDPHCLR (UniProt Q14344) | 0.3 | 0.286
GNL2_Q13823_362_IFLIDCPGVVYPSEDSETDIVLK (UniProt Q13823) | -0.0448 | 0.153
GNB1_P62873_271_ADQELMTYSHDNIICGITSVSFSKSGR (UniProt P62873) | 0.0306 | 0.00182
GPATCH8_Q9UKJ3_402_EEGAGATEPEYYHYIPPAHCK (UniProt Q9UKJ3) | -0.0792 | -0.165
GLG1_Q92896_639_CLIDLGK (UniProt Q92896) | -0.0168 | 0.136
GNAI2_P04899_326_EIYTHFTCATDTK (UniProt P04899) | 0.0806 | 0.165
GLG1_Q92896_316_HLYFACR (UniProt Q92896) | 0.0481 | 0.198
GLO1_Q04760_139_GFGHIGIAVPDVYSACK (UniProt Q04760) | -0.0576 | -0.00736

Target | probe-labelled cysteine peptide fold change (10 µM) | probe-labelled cysteine peptide fold change (50 µM)
GNL1_P36915_410_LCDCPGLIFPSLLPR (UniProt P36915) | 0.0375 | 0.118
GNB2_P62879_25_ACGDSTLTQITAGLDPVGR (UniProt P62879) | 0.0877 | 0.154
GLRX5_Q86SX6_67_GTPEQPQCGFSNAVVQILR (UniProt Q86SX6) | -0.319 | 
GNB1_P62873_148_ELAGHTGYLSCCR (UniProt P62873) | 0.0175 | 0.0947
GMPPA_Q96IJ6_389_LLPAITILGCR (UniProt Q96IJ6) | 0.15 | 0.0371
GOLGA2_Q08379_794_EPEAAAPAPGTGGDSVCGETHR (UniProt Q08379) | 0.00942 | -0.216
GNB1L_Q9BYB4_5_TAPCPPPPPDPQFVLR (UniProt Q9BYB4) | 0.293 | -0.103
GNAI2_P04899_112_QLFALSCTAEEQGVLPDDLSGVIRR (UniProt P04899) | -0.0984 | -0.0698
GNPTG_Q9UJJ9_157_LAHVSEPSTCVYALTFETPLVCHPHALLVYPTLPEALQR (UniProt Q9UJJ9) | 0.29 | -0.37
GK_P32189_220_QLCEFFGIPMEILPNVR (UniProt P32189) | 0.359 | -0.0142
GPD1L_Q8N335_343_PVQEMLSCLQSHPEHT (UniProt Q8N335) | -0.189 | 0.188
GMIP_Q9P107_521_ECEAFMVSGTECEECFLTCHK (UniProt Q9P107) | 0.0832 | 0.107
GNB1_P62873_25_ACADATLSQITNNIDPVGR (UniProt P62873) | 0.0281 | -0.0319
GNL3L_Q9NVN8_518_SNSMVDVCSVDR (UniProt Q9NVN8) | -0.0413 | -0.241
GNS_P15586_513_LMMLQSCSGPTCR (UniProt P15586) | -0.101 | 0.00513
GNL3_Q9BVP2_156_KVIEASDVVLEVLDARDPLGCR (UniProt Q9BVP2) | -0.41 | -0.169
GPD1L_Q8N335_104_ICDEITGR (UniProt Q8N335) | 0.0477 | -0.0607
GMIP_Q9P107_521_CRECEAFMVSGTECEECFLTCHK (UniProt Q9P107) | 0.0571 | 0.0807
GNL1_P36915_517_LSLCFHPPGYSEQK (UniProt P36915) | -0.00574 | -0.0557
GMIP_Q9P107_529_CLETLLILCGHR (UniProt Q9P107) | 0.102 | 0.271
GMIP_Q9P107_895_LCEETPITSVPR (UniProt Q9P107) | 0.0542 | -0.00741

Target | probe-labelled cysteine peptide fold change (10 µM) | probe-labelled cysteine peptide fold change (50 µM)
GLG1_Q92896_659_TETGQELECLQDHLDDLVVECR (UniProt Q92896) | 0.00634 | -0.0874
GNAI2_P04899_287_ITHSPLTICFPEYTGANKYDEAASYIQSK (UniProt P04899) | -0.134 | -0.103
GPATCH2_Q9NW75_188_TMTQPPEGCRDQDMDSDR (UniProt Q9NW75) | -0.142 | -0.402
GIT2_Q14161_149_TGNLETCLR (UniProt Q14161) | -0.0434 | -0.0512
GLUL_P15104_183_ACLYAGVK (UniProt P15104) | -0.0478 | 0.118
GLMN_Q92990_406_CLLNTSNHSGVEAFIIQNIK (UniProt Q92990) | 0.0882 | -0.082
GOLPH3_Q9H4A6_84_DREGYTSFWNDCISSGLR (UniProt Q9H4A6) | 0.0511 | 0.0748
GLO1_Q04760_19+20_AEPQPPSGGLTDEAALSCCSDADPSTK (UniProt Q04760) | -0.022 | -0.236
GLCCI1_Q86VQ1_151_SPGSPVCR (UniProt Q86VQ1) | 0.0233 | 0.0417
GNPDA2_Q8TDQ7_118_HIDIDPNNAHILDGNAADLQAECDAFENK (UniProt Q8TDQ7) | -0.109 | 0.0113
GNAI2_P04899-6_14_KIIHEDGYSEEECR (UniProt P04899) | 0.0446 | -0.0273
GNB1_P62873_25_KACADATLSQITNNIDPVGR (UniProt P62873) | -0.198 | -0.211
GPA33_Q99795_43_SVTLPCTYHTSTSSR (UniProt Q99795) | 0.259 | 0.0836
GOT2_P00505_187+212_TCGFDFTGAVEDISKIPEQSVLLLHACAHNPTGVDPRPEQWK (UniProt P00505) | -0.113 | -0.363
GMEB2_Q9UKD1_96_MAEEGENLEAEIVYPITCGDSR (UniProt Q9UKD1) | -0.382 | 0.185
GNB2_P62879_149_ELPGHTGYLSCCR (UniProt P62879) | 0.00625 | -0.0766
GOLGA3_Q08378_391_DSICSSVSLESSAAETQEEMLQVLK (UniProt Q08378) | -0.0584 | -0.0915
GMPPA_Q96IJ6_335_LRESIVLHGATLQEHTCVLHSIVGWGSTVGR (UniProt Q96IJ6) | -0.0276 | -0.0093
GK_P32189_67_EILHSVYECIEK (UniProt P32189) | 0.13 | -0.0195
GLG1_Q92896_528_SGDPMILSCLMEHLYTEK (UniProt Q92896) | -0.0124 | -0.0209
GPATCH8_Q9UKJ3_508_VSETQMCESNSSK (UniProt Q9UKJ3) | -0.113 | -0.231

Target | probe-labelled cysteine peptide fold change (10 µM) | probe-labelled cysteine peptide fold change (50 µM)
GMIP_Q9P107_274_AQEAEALYQACVR (UniProt Q9P107) | 0.071 | 0.0497
GNE_Q9Y223_296_HVPFDQFIQLVAHAGCMIGNSSCGVR (UniProt Q9Y223) | 0.388 | -0.027
GMEB2_Q9UKD1_323_DLAALEQQCDEHR (UniProt Q9UKD1) | 0.0818 | 0.0416
GPD1L_Q8N335_9_VCIVGSGNWGSAVAK (UniProt Q8N335) | -0.197 | 0.0282
GOLGA4_Q13439_1862_ELDSCLVR (UniProt Q13439) | -0.0413 | 0.0304
GOLGB1_Q14789_1964_CVSELEEEK (UniProt Q14789) | -0.0139 | 0.0208
GLYR1_Q49A26_486_CQNILQGNFKPDFYLK (UniProt Q49A26) | 0.00574 | -0.0249
GIT2_Q14161_35_GTFLCDECCSVHR (UniProt Q14161) | 0.00118 | 0.0943
GOLGA4_Q13439_1269_TCTVSELEAQLR (UniProt Q13439) | -0.0978 | -0.107
GLG1_Q92896_118_LAEEESCREDVTR (UniProt Q92896) | -0.0823 | -0.0605
GOLGB1_Q14789_1462_QLQVELCEMK (UniProt Q14789) | -0.188 | -0.263
GNE_Q9Y223_303_HVPFDQFIQLVAHAGCMIGNSSCGVR (UniProt Q9Y223) | -0.0267 | -0.232
GMIP_Q9P107_599_LCQAFENGR (UniProt Q9P107) | 0.00421 | 0.0642
GLUD1_P00367_376_AKPYEGSILEADCDILIPAASEK (UniProt P00367) | -0.0576 | -0.0767
GLRX_P35754_79_DCIGGCSDLVSLQQSGELLTR (UniProt P35754) | -0.0051 | -0.14
GLRX3_O76003_146_LTHAAPCMLFMK (UniProt O76003) | -0.112 | 0.03
GNS_P15586_518_LMMLQSCSGPTCR (UniProt P15586) | -0.229 | -0.0707
GNAQ_P50148_144_SLWNDPGIQECYDR (UniProt P50148) | -0.0686 | -0.0854
GOLGB1_Q14789_3144_KSDPEELREPQQSFSEAQQQLCNTR (UniProt Q14789) | -0.0219 | -0.0547
GLA_P06280_382_GVACNPACFITQLLPVKR (UniProt P06280) | -0.267 | 0.0634
